No constants are given. Whether binding was seen depends on the method and setting. In cells and extracts the contact can be indirect. Some results given as binding are weak or reduced against the parent protein; the word gives no strength.
Assays:
[1] = target: T1, hnRNP F (human (endogenous in 293)) (UniProt P52597); experiment: co-IP; endogenous SRSF10 and endogenous hnRNP F, H and K of 293 cells (Figures S2B-S2E, not shown); which protein was precipitated is not given
T1 sequence: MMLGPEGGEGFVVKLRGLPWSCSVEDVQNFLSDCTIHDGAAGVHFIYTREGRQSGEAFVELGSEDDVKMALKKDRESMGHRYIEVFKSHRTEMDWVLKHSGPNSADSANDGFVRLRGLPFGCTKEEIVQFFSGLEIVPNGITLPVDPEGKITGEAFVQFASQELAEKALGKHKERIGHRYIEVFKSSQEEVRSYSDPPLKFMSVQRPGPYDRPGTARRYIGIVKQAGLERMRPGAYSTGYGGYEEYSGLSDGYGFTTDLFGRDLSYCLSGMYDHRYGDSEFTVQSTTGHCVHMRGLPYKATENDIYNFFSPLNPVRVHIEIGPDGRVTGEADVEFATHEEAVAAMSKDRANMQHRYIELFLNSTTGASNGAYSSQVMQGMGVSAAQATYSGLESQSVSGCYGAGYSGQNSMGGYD

Amino acid sequences for entries named in this document (tags omitted).
UniProt O75494: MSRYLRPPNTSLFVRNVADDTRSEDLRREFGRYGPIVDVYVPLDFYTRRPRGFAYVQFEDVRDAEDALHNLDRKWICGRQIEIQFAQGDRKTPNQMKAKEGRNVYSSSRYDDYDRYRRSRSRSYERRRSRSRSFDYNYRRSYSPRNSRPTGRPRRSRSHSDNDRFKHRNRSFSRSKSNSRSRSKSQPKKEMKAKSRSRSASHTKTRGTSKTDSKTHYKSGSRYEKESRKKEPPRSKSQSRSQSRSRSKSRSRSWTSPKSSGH

[2] = target: hnRNP K (human (endogenous in 293)) (UniProt P61978); experiment: as above
[3] = target: T1, hnRNP F (human (endogenous in 293)); experiment: co-IP; as a1, extracts of cells treated with oxaliplatin; anti-hnRNP F and anti-hnRNP H immunoprecipitates blotted with anti-FLAG
[4] = target: T1, hnRNP F (human (endogenous in 293)); experiment: as above; remark: listed apart in the source
[5] = target: T1, hnRNP F (human (endogenous in 293)); experiment: co-IP; extracts of 293 cells expressing FLAG-SRSF10, RS1-FLAG, RS2-FLAG or RS1-ΔΔ-FLAG, lysed in NET-2 buffer (50 mM Tris-HCl pH 7.4, 150 mM NaCl, 0.05% NP-40), treated with RNase A; anti-hnRNP F, H or K antibodies on protein G magnetic beads, overnight at 4°C; blot with anti-FLAG; cells treated or not with oxaliplatin
[6] = target: hnRNP K (human (endogenous in 293)) (UniProt P61978); experiment: as above

binding [1]	binding [2]	binding [3]	binding [5]	binding [6]	Substance	binding [4]
binds	binds	–	–	–	endogenous SRSF10 (from UniProt O75494 1-262)	–
–	–	binds weakly	binds	binds	FLAG-SRSF10 (from UniProt O75494 1-262)	no binding (condition: cells treated with oxaliplatin)

Source: article PMC5483951
